Assay results published in patent US20100021940A1 (ASTRAZENECA AB, priority 2006, published 2010).

Test: general procedure: peptide synthesis; HBTU/DIEA
Conditions: late stage modification step; for final HPLC purity: UV=220 nm, HPLC system B

Methyl 1-acetyl-L-prolyl-L-leucylglycyl-α-R-[4-(5-p-tolyl-[1,3,4]oxadiazol-2-yl)-phenylamino]-glycyl-L-leucylglycinate
step yield: 36%

Methyl 1-acetyl-L-prolyl-L-leucylglycyl-α-R-(4-nitrophenylamino)-glycyl-L-leucyl-β-alaninate
step yield: 22%
final HPLC purity: >99%

Methyl 1-acetyl-L-prolyl-L-leucylglycyl-α-(4-nitrophenylamino)-glycyl-L-leucyl-β-alaninate slow D-like diastereomer
step yield: 17%
final HPLC purity: >99%

Methyl 1-acetyl-L-prolyl-L-leucylglycyl-α-(4-nitrophenylamino)-glycyl-L-leucylglycinate slow D-like diastereomer
step yield: 16%

Methyl 1-acetyl-L-prolyl-L-leucylglycyl-α-[4-(5-p-tolyl-[1,3,4]oxadiazol-2-yl)-phenylamino]-glycyl-L-leucylglycinate slow D-like diastereomer
step yield: 8%

Methyl 1-acetyl-L-prolyl-L-leucylglycyl-α-R-(4-nitrophenylamino)-glycyl-L-leucylglycinate
step yield: 9%
